No constants are given. Whether binding was seen depends on the method and setting. Binding seen in cells or lysates may run through a third protein. These calls come from enrichment with a bait or labelling near it, and not all partners need be listed. Tags and fused reporters may be left off the sequences shown.

Protein sequences, listed by entry. Tags and fused reporters are not part of them. Lines headed by an entry give the natural chain unless they say otherwise; changes in a name come on top.
UniProt Q4L2X2: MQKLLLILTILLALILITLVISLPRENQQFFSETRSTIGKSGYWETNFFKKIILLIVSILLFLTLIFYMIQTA

In this test the target is T1, His-Asp4 (accessory Sec protein Asp4 of S. gordonii with an N-terminal His6 tag) (S. gordonii) (UniProt Q4L2X3).
T1 sequence: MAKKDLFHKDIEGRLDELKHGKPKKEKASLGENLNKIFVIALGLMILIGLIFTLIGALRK
Nature of the test: affinity purification with mass spectrometry; His-Asp4, SecY2 and Asp5 co-expressed in E. coli C43; DDM-solubilised membranes applied to Ni2+-Sepharose (wash 30 mM imidazole, elution 330 mM imidazole), then Superdex 200 gel filtration in TSG130 buffer with 0.02% DDM; SDS-PAGE bands at 25 and 10 kDa identified by LC-MS. In general terms: SEC sorts molecules by how far they enter the pores of the column.

Consider “Asp5 (accessory Sec protein Asp5 of S. gordonii) (from UniProt Q4L2X2)”, for which the binding result is recorded as “binds”.

B1: SecY2 of S. gordonii (protein, UniProt A8AWV0 1-407)
chain: MKSFFKPLILKKFLWTLLFVFIYVLGSKLTLPFVDVSSIAKLNGDSVTLNYAAALMGGNLRSMSFFSIGLAPWMSSILIWQMFTVSKRLGFNKLSMESQEKRRMLLTLAIALIQSLALVLNLPLKTVVGVGQGTIVFLNTLILIAGTYFLIWLTDLNSSMGLGGSIMIVMVSMISYIPQDIWLSIQELKISPLILALIGFFSLCFLYLAVLVERAKYRIPINKINIHNRFKKYSYLDIRVNAAGGLPIMYAMTLVSIPQYFLMLFLFFQPNNRLLKEGILSLAMGGIPWFILYLLTIFILAWAFAFINVNSDQIAERMQRSGEYIENLYPGEATRRYIHKIVGYFAFVGALYLVLVAGLPMLLIFLDIRYMRLGMIPGMFMIFIGMVFSIKDEVDTLTLNDRYRSLF
B1: the binding result is recorded as “binds”.

The values are drawn from paper PMC5076819.
